Not every detail of the peptide structures is certain; ends, links or a residue may be inferred. Peptide text beside a SMILES is read from it.
Tested on: Escherichia coli
Assay: Zone of inhibition test
Type: cell-based
Settings: E. coli

## CC(C)C[C@H](NC(=O)CNC(=O)[C@H](C)NC(=O)[C@H](CC(=O)O)NC(=O)[C@H](CC(=O)O)NC(=O)[C@H](C)NC(=O)[C@@H]1CCCN1C(=O)[C@H](CCCCN)NC(=O)CNC(=O)[C@@H]1CCCN1C(=O)[C@@H]1CCCN1C(=O)[C@@H]1CCCN1C(=O)[C@H](CCC(=O)O)NC(=O)CN)C(=O)N[C@H](C(=O)O)C(C)C [BPC-157, pentadecapeptide BPC 157] (H-GEPPPGKPADDAGLV-OH)
Different concentrations of BPC-157
  concentration dependence of area of inhibition: independent of BPC-157 concentrations
Free BPC-157, compared to Ciprofloxacin (8 mg/ml)
  antibacterial effect: ~45%
